From PMC10573421
Results are given in words; binding and its absence hold for the method and conditions named. Binding seen in cells or lysates may run through a third protein. Some binding calls cover weakened binding; strength is not graded here.

Sequences of proteins named here, by UniProt entry; tags and fusion partners are left off. Residues count along the entry.
UniProt P78504, residues 34-1218: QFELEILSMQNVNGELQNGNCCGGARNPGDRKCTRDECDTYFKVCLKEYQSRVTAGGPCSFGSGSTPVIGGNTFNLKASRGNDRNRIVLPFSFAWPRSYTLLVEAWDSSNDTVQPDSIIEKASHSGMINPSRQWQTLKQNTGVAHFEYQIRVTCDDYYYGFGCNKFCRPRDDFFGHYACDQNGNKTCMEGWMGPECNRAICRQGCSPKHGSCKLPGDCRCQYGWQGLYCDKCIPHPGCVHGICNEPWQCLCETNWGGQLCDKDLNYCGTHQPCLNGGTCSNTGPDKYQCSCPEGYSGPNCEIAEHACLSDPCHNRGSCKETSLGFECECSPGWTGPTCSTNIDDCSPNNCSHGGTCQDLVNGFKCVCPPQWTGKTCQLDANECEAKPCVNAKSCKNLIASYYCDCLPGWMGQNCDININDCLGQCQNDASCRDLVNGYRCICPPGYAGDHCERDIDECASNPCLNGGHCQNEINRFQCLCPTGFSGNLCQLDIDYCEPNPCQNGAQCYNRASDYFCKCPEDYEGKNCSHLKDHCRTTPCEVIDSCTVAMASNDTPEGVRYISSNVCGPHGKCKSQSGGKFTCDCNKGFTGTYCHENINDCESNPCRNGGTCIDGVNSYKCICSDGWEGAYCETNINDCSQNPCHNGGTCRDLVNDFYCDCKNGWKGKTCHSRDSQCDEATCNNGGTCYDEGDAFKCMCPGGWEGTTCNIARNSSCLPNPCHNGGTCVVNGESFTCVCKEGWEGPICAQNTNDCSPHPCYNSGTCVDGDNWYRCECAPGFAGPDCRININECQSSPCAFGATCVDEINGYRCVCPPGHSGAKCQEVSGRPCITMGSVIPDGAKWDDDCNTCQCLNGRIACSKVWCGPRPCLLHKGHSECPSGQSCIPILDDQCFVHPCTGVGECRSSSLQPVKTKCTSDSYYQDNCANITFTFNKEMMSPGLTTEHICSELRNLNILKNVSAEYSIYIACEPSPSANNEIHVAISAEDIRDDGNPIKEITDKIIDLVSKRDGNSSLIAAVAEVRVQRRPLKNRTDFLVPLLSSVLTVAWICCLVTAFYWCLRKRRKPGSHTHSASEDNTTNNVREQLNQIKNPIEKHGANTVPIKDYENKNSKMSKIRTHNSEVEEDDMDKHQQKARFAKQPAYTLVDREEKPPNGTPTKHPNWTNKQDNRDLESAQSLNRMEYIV
UniProt P07355: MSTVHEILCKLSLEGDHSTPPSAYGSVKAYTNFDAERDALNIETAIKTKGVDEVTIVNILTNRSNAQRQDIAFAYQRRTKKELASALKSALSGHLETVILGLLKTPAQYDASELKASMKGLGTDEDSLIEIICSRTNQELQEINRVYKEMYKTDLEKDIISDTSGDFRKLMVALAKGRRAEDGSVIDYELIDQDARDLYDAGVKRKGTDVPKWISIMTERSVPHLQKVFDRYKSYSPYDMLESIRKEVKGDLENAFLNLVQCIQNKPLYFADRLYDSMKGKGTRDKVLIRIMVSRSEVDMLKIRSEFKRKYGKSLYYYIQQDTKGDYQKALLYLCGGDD

Target: C-terminal-HA-tagged JAG1 (UniProt P78504)
Experiment: co-IP; ANXA2-FLAG with C-terminal-HA-tagged JAG1 (Supplementary Figure S1F); cells not given

binding: binds
Substance: ANXA2-FLAG (from UniProt P07355 1-339)
